Values as published with doi:10.1371/journal.pone.0140310, rounded.

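The test systems are human melanoma cell lines, treated with two drugs together for 72 h and then stained and imaged. Values are the number of DAPI-stained nuclei as a percentage of the DMSO control: 100 is no effect, lower means fewer cells. Concentrations were fixed for each drug; these are the lower of two levels, a fifth of the higher. These are primary screening values without error estimates.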
An unselected part of the screen is shown.

Drugs:
GW441756 (400 nM): Cn1cc(/C=C2\C(=O)Nc3cccnc32)c2ccccc21
L-779450 (200 nM): Oc1cc(-c2nc(-c3ccccc3)[nH]c2-c2ccncc2)ccc1Cl
BMS-536924 (200 nM): Cc1cc(N2CCOCC2)cc2[nH]c(-c3c(NC[C@@H](O)c4cccc(Cl)c4)cc[nH]c3=O)nc12
palbociclib (40 nM): CC(=O)c1c(C)c2cnc(Nc3ccc(N4CCNCC4)cn3)nc2n(C2CCCC2)c1=O
GW9662 (2000 nM): O=C(Nc1ccccc1)c1cc([N+](=O)[O-])ccc1Cl
ZM336372 (2000 nM): Cc1ccc(NC(=O)c2cccc(N(C)C)c2)cc1NC(=O)c1ccc(O)cc1
NVP-BEZ235 (4 nM): Cn1c(=O)n(-c2ccc(C(C)(C)C#N)cc2)c2c3cc(-c4cnc5ccccc5c4)ccc3ncc21
CP-690550 (1000 nM): C[C@@H]1CCN(C(=O)CC#N)C[C@@H]1N(C)c1ncnc2[nH]ccc12
OSI-906 (400 nM): C[C@]1(O)C[C@@H](c2nc(-c3ccc4ccc(-c5ccccc5)nc4c3)c3c(N)nccn32)C1

- ZM336372 + OSI-906 | COLO 792: 107; G-361: 86.4; C32: 110; COLO 829: 95.5; LOX IMVI: 146
- L-779450 + NVP-BEZ235 | COLO 792: 97.7; G-361: 92.7; C32: 91.4; COLO 829: 110; LOX IMVI: 109
- NVP-BEZ235 + CP-690550 | COLO 792: 90.5; G-361: 90.1; C32: 98.5; COLO 829: 98.6; LOX IMVI: 97.1
- OSI-906 + CP-690550 | COLO 792: 110; G-361: 87.0; C32: 121; COLO 829: 145; LOX IMVI: 113
- GW9662 + L-779450 | COLO 792: 107; G-361: 89.4; C32: 90.7; COLO 829: 110; LOX IMVI: 114
- OSI-906 + BMS-536924 | COLO 792: 77.1; G-361: 91.6; C32: 95.2; COLO 829: 91.0; LOX IMVI: 69.2
- ZM336372 + GW9662 | COLO 792: 118; G-361: 95.0; C32: 111; COLO 829: 90.6; LOX IMVI: 86.5
- GW441756 + NVP-BEZ235 | COLO 792: 89.3; G-361: 97.6; C32: 84.6; COLO 829: 80.5; LOX IMVI: 127
- palbociclib + CP-690550 | COLO 792: 63.5; G-361: 82.3; C32: 85.4; COLO 829: 98.7; LOX IMVI: 63.1
- palbociclib + OSI-906 | COLO 792: 87.8; G-361: 73.6; C32: 93.5; COLO 829: 89.2; LOX IMVI: 105
- OSI-906 + L-779450 | COLO 792: 101; G-361: 96.0; C32: 98.5; COLO 829: 103; LOX IMVI: 89.7
- palbociclib + ZM336372 | COLO 792: 87.1; G-361: 90.2; C32: 88.4; COLO 829: 96.6; LOX IMVI: 155
- BMS-536924 + NVP-BEZ235 | COLO 792: 80.1; G-361: 92.2; C32: 85.1; COLO 829: 96.1; LOX IMVI: 79.1
- L-779450 + BMS-536924 | COLO 792: 91.6; G-361: 77.5; C32: 88.4; COLO 829: 100; LOX IMVI: 117
- GW9662 + GW441756 | COLO 792: 105; G-361: 91.9; C32: 102; COLO 829: 81.5; LOX IMVI: 255
- GW9662 + NVP-BEZ235 | COLO 792: 107; G-361: 99.4; C32: 93.7; COLO 829: 103; LOX IMVI: 89.6
- OSI-906 + GW9662 | COLO 792: 83.0; G-361: 83.6; C32: 104; COLO 829: 84.4; LOX IMVI: 51.1
- L-779450 + ZM336372 | COLO 792: 90.9; G-361: 86.9; C32: 79.0; COLO 829: 117; LOX IMVI: 117
- ZM336372 + NVP-BEZ235 | COLO 792: 103; G-361: 95.2; C32: 87.9; COLO 829: 115; LOX IMVI: 147
- NVP-BEZ235 + palbociclib | COLO 792: 61.9; G-361: 77.8; C32: 72.7; COLO 829: 67.1; LOX IMVI: 53.7
- palbociclib + BMS-536924 | COLO 792: 53.3; G-361: 64.7; C32: 72.6; COLO 829: 107; LOX IMVI: 62.7
- GW441756 + ZM336372 | COLO 792: 110; G-361: 103; C32: 94.1; COLO 829: 100; LOX IMVI: 75.0
- L-779450 + CP-690550 | COLO 792: 94.3; G-361: 88.6; C32: 91.2; COLO 829: 99.6; LOX IMVI: 124
- ZM336372 + CP-690550 | COLO 792: 95.6; G-361: 101; C32: 105; COLO 829: 116; LOX IMVI: 117
- GW441756 + BMS-536924 | COLO 792: 98.8; G-361: 89.8; C32: 96.7; COLO 829: 110; LOX IMVI: 123
- CP-690550 + GW441756 | COLO 792: 94.6; G-361: 101; C32: 92.5; COLO 829: 101; LOX IMVI: 77.9

Some entries from above, unchanged:

Pair,COLO 792,G-361,C32,COLO 829,LOX IMVI
OSI-906 + CP-690550,110,87.0,121,145,113
GW9662 + L-779450,107,89.4,90.7,110,114